Earlier results on one compound are cited in patent US20170165237A1 (DRUGGABILITY TECHNOLOGIES IP HOLDCO LIMITED, priority 2014, published 2017).

The conditions of the data set: cited from earlier work.

Structures are written as SMILES.

As to `CO[C@H]1C[C@@H]2CC[C@@H](C)[C@@](O)(O2)C(=O)C(=O)N2CCCC[C@H]2C(=O)O[C@H]([C@H](C)C[C@@H]2CC[C@@H](O)[C@H](OC)C2)CC(=O)[C@H](C)/C=C(\C)[C@@H](O)[C@@H](OC)C(=O)[C@H](C)C[C@H](C)/C=C/C=C/C=C/1C` [Sirolimus, (3 S,6R,7E,9R,10R, 12R, 14S, 15E, 17E, 19E,21 S,23 S,26R,27R,34aS)9,10,12,13,14,21,22,23,24, 25,26,27,32,33,34, 34a-hexadecahydro-9,27-dihydroxy-3-[(1R)-2[(1 S,3R,4R)-4-hydroxy-3-methoxycyclohexyl]-1-methylethyl]-10,21-dimethoxy6,8,12,14,20,26-hexamethyl-23,27-epoxy-3H-pyrido[2,1-c][1,4]oxaazacyclohentriacontine1,5,11,28,29 (4H,6H,31H)-pentone], for the setting “benzyl alcohol, chloroform, acetone, and acetonitrile”, the “solubility in organic solvents” value is given as “freely soluble”. Moreover, the solubility in water entry (water) is recorded as “insoluble”.
